Measured values published in patent US11555821B2, “CA IX-NIR dyes and their uses” (On Target Laboratories, Inc., priority 2016, dated 2023).
Some entries share one result that the patent states for a list of compounds. At least one structure is not confirmed: it was looked up by name or label, or the drawing left a doubt.

System: CA IX-positive SKRC52 cells
Test: Binding to CA IX-positive cells by confocal microscopy and flow cytometry
Assay type: cell-based, human

SMILES | binding affinity to CA IX-positive SKRC52 cells
NS(=O)(=O)c1c(F)c(F)c(S(=O)(=O)CCC(=O)NCCOCCOCCC(=O)N[C@@H](Cc2ccc(O)cc2)C(=O)NCCNC(=S)Nc2ccc(-c3c4ccc(=O)cc-4oc4cc(O)ccc34)c(C(=O)O)c2)c(NC2CCCCCCC2)c1F [Compound 105] | very high affinity
CCN(CC)c1ccc2c(-c3ccc(NC(=S)NCCNC(=O)[C@H](Cc4ccc(O)cc4)NC(=O)CCOCCOCCNC(=O)CCS(=O)(=O)c4c(F)c(F)c(S(N)(=O)=O)c(F)c4NC4CCCCCCC4)cc3C(=O)O)c3ccc(=[N+](CC)CC)cc-3oc2c1 [Compound 106] | very high affinity
